# Counter-ions that a name gives are not always drawn. Like-named read-outs stand apart in the source and are kept apart here. Some entries share one result that the patent states for a list of compounds.
# Biological target: T1, bacterial PDF (S. aureus or E. coli PDF, Def1 enzyme) (UniProt P68826)
# T1 sequence (P68826 1-183): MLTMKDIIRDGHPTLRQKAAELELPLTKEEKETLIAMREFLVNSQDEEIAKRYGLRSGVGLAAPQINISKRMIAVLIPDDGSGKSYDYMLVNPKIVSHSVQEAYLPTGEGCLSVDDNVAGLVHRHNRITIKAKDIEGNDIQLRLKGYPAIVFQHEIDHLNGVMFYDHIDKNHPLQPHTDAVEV
# Test: Bacterial PDF Assay (formate dehydrogenase-coupled continuous enzyme-linked assay)
# Format: biochemical
# [1] = 25° C., substrate f-Met-Ala-Ser at KM, read-out: IC50 against bacterial PDF
# [2] = read-out: IC50 against bacterial PDF, 25° C., substrate f-Met-Ala-Ser at KM
Structure (SMILES),IC50 [1] [nM],IC50 [2] [nM]
"O=CN(O)C[C@@H](CC1CCCC1)C(=O)N1CCC[C@H]1C(=O)NC(=O)c1cnoc1 [Example 43, 1-((2R)-3-cyclopentyl-2-{[formyl(hydroxy)amino]methyl}propanoyl)-N-(4-isoxazolylcarbonyl)-L-prolinamide]",≤ 100,–
"COC[C@@H](C)OC(=O)NC(=O)[C@@H]1CCCN1C(=O)[C@H](CC1CCCC1)CN(O)C=O [Example 47, 1-((2R)-3-cyclopentyl-2-{[formyl(hydroxy)amino]methyl}propanoyl)-N-({[(1R)-1-methyl-2-(methyloxy)ethyl]oxy}carbonyl)-L-prolinamide]",≤ 100,–
"CC(CNC(=O)NC(=O)[C@@H]1CCCN1C(=O)[C@H](CC1CCCC1)CN(O)C=O)c1ccccc1 (stereo partly drawn) [Example 102, 1-((2R)-3-cyclopentyl-2-{[formyl(hydroxy)amino]methyl}propanoyl)-N-{[(2-phenylpropyl)amino]carbonyl}-L-prolinamide]",≤ 100,–
"CCCCNC(=O)NC(=O)[C@@H]1CCCN1C(=O)[C@H](CC1CCCC1)CN(O)C=O [Example 71, N-[(butylamino)carbonyl]-1-((2R)-3-cyclopentyl-2-{[formyl(hydroxy)amino]methyl}propanoyl)-L-prolinamide]",≤ 100,–
"COC(=O)NC(=O)NC(=O)[C@@H]1CCCN1C(=O)[C@H](CC1CCCC1)CN(O)C=O [Example 62, 1-((2R)-3-cyclopentyl-2-{[formyl(hydroxy)amino]methyl}propanoyl)-N-({[(methyloxy)carbonyl]amino}carbonyl)-L-prolinamide]",≤ 100,–
"COC[C@H](C)OC(=O)NC(=O)[C@@H]1CCCN1C(=O)[C@H](CC1CCCC1)CN(O)C=O [Example 46, 1-((2R)-3-cyclopentyl-2-{[formyl(hydroxy)amino]methyl}propanoyl)-N-({[(1S)-1-methyl-2-(methyloxy)ethyl]oxy}carbonyl)-L-prolinamide]",≤ 100,–
"CC1(C)CCN(C(=O)[C@H](CC2CCCC2)CN(O)C=O)[C@@H]1C(=O)NC(=O)OCC1CCO1 (stereo partly drawn) [Example 115, 1-((2R)-3-cyclopentyl-2-{[formyl(hydroxy)amino]methyl}propanoyl)-3,3-dimethyl-N-{[(2-oxetanylmethyl)oxy]carbonyl}-L-prolinamide]",≤ 100,–
"CCCCC[C@H](CN(O)C=O)C(=O)N1CCC[C@H]1C(=O)NC(=O)OC(C)(C)C [Example 64, N-{[(1,1-dimethylethyl)oxy]carbonyl}-1-((2R)-2-{[formyl(hydroxy)amino]methyl}heptanoyl)-L-prolinamide]",≤ 100,–
"O=CN(O)C[C@@H](CC1CCCC1)C(=O)N1CCC[C@H]1C(=O)NC(=O)c1ccc(F)cc1 [Example 1, 1-((2R)-3-cyclopentyl-2-{[formyl(hydroxy)amino]methyl}propanoyl)-N-[(4-fluorophenyl)carbonyl]-L-prolinamide]",–,≤ 100
"O=CN(O)C[C@@H](CC1CCCC1)C(=O)N1CCC[C@H]1C(=O)NC(=O)NCCN1CCCC1 [Example 105, 1-((2R)-3-cyclopentyl-2-{[formyl(hydroxy)amino]methyl}propanoyl)-N-({[2-(1-pyrrolidinyl)ethyl]amino}carbonyl)-L-prolinamide formate]",–,≤ 100
"CC(C)(C)C(=O)NC(=O)[C@@H]1CCCN1C(=O)[C@H](CC1CCCC1)CN(O)C=O [Example 36, 1-((2M)-3-cyclopentyl-2-{[formyl(hydroxy)amino]methyl}propanoyl)-N-(2,2-dimethylpropanoyl)-L-prolinamide]",≤ 100,–
"O=CN(O)C[C@@H](CC1CCCC1)C(=O)N1CCC[C@H]1C(=O)NC(=O)NCCc1ccccc1 [Example 81, 1-((2R)-3-cyclopentyl-2-{[formyl(hydroxy)amino]methyl}propanoyl)-N-{[(2-phenylethyl)amino]carbonyl}-L-prolinamide]",≤ 100,–
"CC(C)(C)OC(=O)NC(=O)[C@@H](NC(=O)[C@H](CC1CCCC1)CN(O)C=O)C(C)(C)C [Example 68, N^2-((2R)-3-cyclopentyl-2-{[formyl(hydroxy)amino]methyl}propanoyl)-#-{[(1,1-dimethylethyl)oxy]carbonyl}-3-methyl-L-valinamide]",≤ 100,–
"O=CN(O)C[C@@H](CC1CCCC1)C(=O)N1CCC[C@H]1C(=O)NC(=O)NCCCCO [Example 94, 1-((2R)-3-cyclopentyl-2-{[formyl(hydroxy)amino]methyl}propanoyl)-N-{[(4-hydroxybutyl)amino]carbonyl}-L-prolinamide]",≤ 100,–
"N#C[C@H]1C[C@H](NC(=O)NC(=O)[C@@H]2CCCN2C(=O)[C@H](CC2CCCC2)CN(O)C=O)C1 [Example 129, N-{[(trans-3-cyanocyclobutyl)amino]carbonyl}-1-((2R)-3-cyclopentyl-2-{[formyl(hydroxy)amino]methyl}propanoyl)-L-prolinamide]",≤ 100,–
"COCC(=O)NC(=O)[C@@H]1CCCN1C(=O)[C@H](CC1CCCC1)CN(O)C=O [Example 5, 1-((2R)-3-cyclopentyl-2-{[formyl(hydroxy)amino]methyl}propanoyl)-N-[(methyloxy)acetyl]-L-prolinamide]",–,≤ 100
"CCOC(=O)NC(=O)[C@@H]1CCCN1C(=O)[C@H](CC1CCCC1)CN(O)C=O [Example 23, 1-((2R)-3-cyclopentyl-2-{[formyl(hydroxy)amino]methyl}propanoyl)-N-[(ethyloxy)carbonyl]-L-prolinamide]",≤ 100,–
"CC1(C)CCN(C(=O)[C@H](CC2CCCC2)CN(O)C=O)[C@@H]1C(=O)NC(=O)O[C@H]1CCOC1 [Example 131, 1-((2R)-3-cyclopentyl-2-{[formyl(hydroxy)amino]methyl}propanoyl)-3,3-dimethyl-N-{[(3S)-tetrahydro-3-furanyloxy]carbonyl}-L-prolinamide]",≤ 100,–
"O=CN(O)C[C@@H](CC1CCCC1)C(=O)N1CCC[C@H]1C(=O)NC(=O)NCCc1cc2ccccc2o1 [Example 88, N-({[2-(1-benzofuran-2-yl)ethyl]amino}carbonyl)-1-((2R)-3-cyclopentyl-2-{[formyl(hydroxy)amino]methyl}propanoyl)-L-prolinamide]",≤ 100,–

# Source: patent US7982053B2, “Peptide deformylase inhibitors” (GlaxoSmithKline LLC, priority 2005, dated 2011)
